Data as given in PubChem BioAssay AID504791 (Drosophila RNAi Screening Center, 2011)

Aim: 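Genes whose knock-down strengthens or weakens small-RNA reporter silencing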 (primary screen)
System: Drosophila S2-derived reporter cells
Reagents: long dsRNA against Drosophila genes, about 150-250 ng dsRNA per well (siRNA assay); about 80-120 ng (miRNA assay)
Time to read-out: about 5 days (siRNA assay); about 4 days (miRNA assay)
Conditions: copper sulfate induction of reporters: 25 µM (siRNA assay); 200 mM stated (miRNA assay), 1-2 days before reading
Measured: 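Dual luciferase assay: Renilla to firefly signal ratio in each well, scaled to the mean ratio of its plate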
Units: stable assay Renilla, run 1 in luminescence; stable assay firefly, run 1 in luminescence
Active means: 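a well was a first-pass pick when its plate-scaled ratio rose above 1.5 (siRNA assay) or 1.6 (miRNA assay), or dropped below 0.6; a gene counted only if two separate dsRNAs agreed on retest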
The deposit covers about 23,000 reagents; shown is a random part of those with a known target gene and a result. Over the whole deposit, 199 (0.86%) got an active call. 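Plate-scaled ratios behind the calls are not deposited; printed light signals are raw; many rows marked increased or decreased are still called inactive.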 Reagents against one gene are numbered here. Not given: the direction of the score.

PAN3 (GeneID 38369): stable assay Renilla, run 1 = 7410; stable assay firefly, run 1 = 4.51e5; Call = inactive
IRSp53 (GeneID 39258): stable assay Renilla, run 1 = 5871; stable assay firefly, run 1 = 2.97e5; Call = inactive
zen2 (GeneID 40827): stable assay Renilla, run 1 = 7186; stable assay firefly, run 1 = 4.73e5; Call = inactive
CG1360 (GeneID 35695): stable assay Renilla, run 1 = 6067; stable assay firefly, run 1 = 2.90e5; Call = inactive
tgy (GeneID 32896): stable assay Renilla, run 1 = 6346; stable assay firefly, run 1 = 4.30e5; Call = inactive
CG42633 (GeneID 8674052): stable assay Renilla, run 1 = 7087; stable assay firefly, run 1 = 3.84e5; Call = inactive
lncRNA:bxd (GeneID 3772220): stable assay Renilla, run 1 = 4092; stable assay firefly, run 1 = 3.07e5; Call = inactive

2 successive reagents already listed, quoted:
IRSp53 (GeneID 39258): stable assay Renilla, run 1 = 5871; stable assay firefly, run 1 = 2.97e5; Call = inactive
zen2 (GeneID 40827): stable assay Renilla, run 1 = 7186; stable assay firefly, run 1 = 4.73e5; Call = inactive

Next records follow.
CG12744 (GeneID 36024): stable assay Renilla, run 1 = 11343; stable assay firefly, run 1 = 4.63e5; Call = inactive
MICAL-like (GeneID 39475): stable assay Renilla, run 1 = 8891; stable assay firefly, run 1 = 4.31e5; Call = inactive
CG5883 (GeneID 39352): stable assay Renilla, run 1 = 5799; stable assay firefly, run 1 = 3.74e5; Call = inactive
Ubqn (GeneID 32977): stable assay Renilla, run 1 = 6848; stable assay firefly, run 1 = 4.83e5; Call = inactive
CG14506 (GeneID 43467): stable assay Renilla, run 1 = 6591; stable assay firefly, run 1 = 3.99e5; Call = inactive
CG15343 (GeneID 31765): stable assay Renilla, run 1 = 5596; stable assay firefly, run 1 = 2.58e5; Call = inactive
wapl (GeneID 31187): stable assay Renilla, run 1 = 8133; stable assay firefly, run 1 = 4.84e5; Call = inactive
CG31698 (GeneID 318888) #1: stable assay Renilla, run 1 = 9641; stable assay firefly, run 1 = 6.06e5; Call = inactive
CG31698 (GeneID 318888) #2: miRNA reporter change = reporter ratio lowered past the hit cutoff; Call = inactive
CG7423 (GeneID 32894): stable assay Renilla, run 1 = 7531; stable assay firefly, run 1 = 3.97e5; Call = inactive
Zip48C (GeneID 36273): stable assay Renilla, run 1 = 6907; stable assay firefly, run 1 = 3.60e5; Call = inactive
plh (GeneID 40615): stable assay Renilla, run 1 = 7211; stable assay firefly, run 1 = 4.09e5; Call = inactive
CG34041 (GeneID 3885583): stable assay Renilla, run 1 = 8134; stable assay firefly, run 1 = 5.22e5; Call = inactive
Gsc (GeneID 33240): stable assay Renilla, run 1 = 7458; stable assay firefly, run 1 = 5.01e5; Call = inactive
